Test results taken from US11382949B2 (BOEHRINGER INGELHEIM ANIMAL HEALTH USA INC., priority 2016, dated 2022).

Assay: general procedure: solution-phase peptide synthesis; BOP-Cl, DIEA
Conditions: for cyclisation yield: cyclisation step
[1] = late stage modification step, hydrochloride

(1R)-1-[[(2S)-1-[[(2R)-1-(benzyloxy)-1-oxo-3-[4-(trifluoromethoxy)phenyl]propan-2-yl]oxy]-4-fluoro-4-methyl-1-oxopentan-2-yl](methyl)carbamoyl]ethyl (2R)-4-methyl-2-(methylamino)pentanoate Hydro-chloride
step yield [1]: 93%

(S)-((R)-1-(benzyloxy)-1-oxo-3-(4-(trifluoromethylthio)phenyl)propan-2-yl)-2-((R)-2-((S)-4,4-dimethyl-2-(methylamino)pentanoyloxy)-N-methylpropanamido)-4-fluoro-4-methylpentanoate Hydrochloride (TA44-46)
step yield [1]: 97%

(2R)-2-[(2S)-2-[[(2R)-2-[(2S)-2-[tert-butoxycarbonyl(methyl)amino]-4,4-dimethyl-pentanoyl]oxypropanoyl]-methyl-amino]-4-fluoro-4-methyl-pentanoyl]oxy-3-[4-(trifluoromethylsulfanyl)phenyl]propanoic Acid (TC44-46)
step yield (late stage modification step): 99%

(3S,6R,9S,12S,15S,18R,21S,24S)-3,15-bis(2-fluoro-2-methylpropyl)-4,6,10,16,18,22-hexamethyl-9,21-dineopentyl-12,24-bis(4-(trifluoromethylthio)benzyl)-1,7,13,19-tetraoxa-4,10,16,22-tetraazacyclotetracosan-2,5,8,11,14,17,20,23-octaone
cyclisation yield: 20%

(6S,9R,12S,15S)-12-(2-fluoro-2-methylpropyl)-2,2,5,9,11-pentamethyl-6-neopentyl-4,7,10,13-tetraoxo-15-(4-(trifluoromethylthio)benzyl)-3,8,14-trioxa-5,11-diazahexadecan-16-oic Acid
step yield (late stage modification step): 98%

(6S,9R,12S,15R,18R,21R,24S,27R)-12,24-bis(2-fluoro-2-methylpropyl)-6,18-diisobutyl-2,2,5,9,11,17,21,23-octamethyl-4,7,10,13,16,19,22,25-octaoxo-15,27-bis(4-(trifluoromethoxy)benzyl)-3,8,14,20,26-pentaoxa-5,11,17,23-tetraazaoctacosan-28-oic acid
step yield (late stage modification step): 71%

(3S,6R,9S,12R,15S,18R,21S,24R)-3,15-bis(2-fluoro-2-methylpropyl)-4,6,10,16,18,22-hexamethyl-9,21-dineopentyl-12,24-bis(4-(trifluoromethylthio)benzyl)-1,7,13,19-tetraoxa-4,10,16,22-tetraazacyclotetracosan-2,5,8,11,14,17,20,23-octaone
cyclisation yield: 37%

(1R)-1-[[(2S)-1-[[(2R)-1-(benzyloxy)-1-oxo-3-[4-(trifluoromethoxy)phenyl]propan-2-yl]oxy]-4-fluoro-4-methyl-1-oxopentan-2-yl](methyl)carbamoyl]ethyl (2R)-2-[[(tert-butoxy)carbonyl](methyl)amino]-4-methylpentanoate
step yield (coupling step): 67%
